# Assay results as given in the supplement of paper PMC8728848.
# The list shows a part of the results.
# B1: SP15308C-bot-338-23-338 (Bacteroides ovatus) (protein)
# chain: DEWTDEQFKQLISFKTQPGGWGVTDVHVRYANSAKYTYNLPVLVSGSTDNTDDRLVSFSLRDDTLDILNFEKFGNRPELYFRELPQKYYSFPKELTIPAGQSHALLPIEFSLDGLDDSQKWALPLKVCEDANGTYAVNPRKYYRTAVLRPILFNEFSGRFSGSSLLGTMAGESDIKFSSTEIKLNVVTDSIVFFYAGQRTEDYEDRINYKVFLQFTGDKVDSKKDLYKMKIWAENEKLKFNSYSTPTYKVSSEMDATKTYLKHTYIVISDIDFDFVDYTSVPNYEIEYNMKGGLSVSRDLDTRKPDEDQGSDSKWW
# Legend:
# Experiment in all cases: glycan array binding signal (z-score within array); higher = stronger binding
# Details in all cases: glycan notation: IUPAC condensed, linker removed
# Kdn(a2-3)Gal(b1-3)GlcNAc = biological target: Kdn(a2-3)Gal(b1-3)GlcNAc
# Summary of the method: (§1)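 Glycan array binding is given as a within-array Z-score, which can be read as non-binding when negative. The arrays, 3228 of them, came from the Consortium for Functional Glycomics database and were retained only where the protein sequence was available. Z-scores were averaged across arrays of the same protein sequence at different concentrations or buffers and across linkers.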
# Kdn(a2-3)Gal(b1-4)Glc = biological target: Kdn(a2-3)Gal(b1-4)Glc
# Summary of the method: as §1
# Kdn(a2-3)Gal(b1-4)GlcNAc = biological target: Kdn(a2-3)Gal(b1-4)GlcNAc
# Summary of the method: as §1
# [1] = biological target: Kdn(a2-3)Gal(b1-4)[Fuc(a1-3)]GlcNAc
# Summary of the method: as §1
# Kdn(a2-6)Gal(b1-4)GlcNAc = biological target: Kdn(a2-6)Gal(b1-4)GlcNAc
# Summary of the method: as §1
# [2] = biological target: Man(a1-2)Man(a1-2)Man(a1-3)Man
# Summary of the method: as §1
# [3] = biological target: Man(a1-2)Man(a1-2)Man(a1-6)[Man(a1-3)]Man
# Summary of the method: as §1
# Man(a1-2)Man(a1-3)Man = biological target: Man(a1-2)Man(a1-3)Man
# Summary of the method: as §1
# [4] = biological target: Man(a1-2)Man(a1-3)[Man(a1-2)Man(a1-6)]Man
# Summary of the method: as §1
# [5] = biological target: Man(a1-2)Man(a1-3)[Man(a1-2)Man(a1-6)]Man(a1-6)[Man(a1-2)Man(a1-2)Man(a1-3)]Man
# Summary of the method: as §1
# [6] = biological target: Man(a1-2)Man(a1-3)[Man(a1-2)Man(a1-6)]Man(a1-6)[Man(a1-2)Man(a1-2)Man(a1-3)]Man(b1-4)GlcNAc(b1-4)GlcNAc
# Summary of the method: as §1
# [7] = biological target: Man(a1-2)Man(a1-3)[Man(a1-6)]Man(a1-6)[Man(a1-2)Man(a1-3)]Man(b1-4)GlcNAc(b1-4)GlcNAc
# Summary of the method: as §1
# [8] = biological target: Man(a1-2)Man(a1-6)[Man(a1-3)]Man(a1-6)[Man(a1-2)Man(a1-2)Man(a1-3)]Man
# Summary of the method: as §1
# [9] = biological target: Man(a1-2)Man(a1-6)[Man(a1-3)]Man(a1-6)[Man(a1-2)Man(a1-2)Man(a1-3)]Man(b1-4)GlcNAc(b1-4)GlcNAc
# Summary of the method: as §1
# Man(a1-3)[Man(a1-6)]Man = biological target: Man(a1-3)[Man(a1-6)]Man
# Summary of the method: as §1
# [10] = biological target: Man(a1-3)[Man(a1-6)]Man(a1-6)[Man(a1-2)Man(a1-3)]Man(b1-4)GlcNAc(b1-4)GlcNAc
# Summary of the method: as §1
# [11] = biological target: Man(a1-3)[Man(a1-6)]Man(a1-6)[Man(a1-3)]Man
# Summary of the method: as §1
# [12] = biological target: Man(a1-3)[Man(a1-6)]Man(a1-6)[Man(a1-3)]Man(b1-4)GlcNAc(b1-4)GlcNAc
# Summary of the method: as §1
# [13] = biological target: Man(a1-3)[Man(a1-6)]Man(b1-4)GlcNAc(b1-4)GlcNAc
# Summary of the method: as §1
# [14] = biological target: Man(a1-3)[Man(a1-6)]Man(b1-4)GlcNAc(b1-4)[Fuc(a1-6)]GlcNAc
# Summary of the method: as §1
# Man(a1-6)Man = biological target: Man(a1-6)Man
# Summary of the method: as §1
# Man(b1-4)GlcNAc = biological target: Man(b1-4)GlcNAc
# Summary of the method: as §1
# MurNAc(b1-4)GlcNAc = biological target: MurNAc(b1-4)GlcNAc
# Summary of the method: as §1
# Neu5Ac(a2-3)Gal = biological target: Neu5Ac(a2-3)Gal
# Summary of the method: as §1
# [15] = biological target: Neu5Ac(a2-3)Gal(b1-3)GalNAc
# Summary of the method: as §1
# [16] = biological target: Neu5Ac(a2-3)Gal(b1-3)GalNAc(b1-3)Gal(a1-4)Gal(b1-4)Glc
# Summary of the method: as §1
# [17] = biological target: Neu5Ac(a2-3)Gal(b1-3)GalNAc(b1-4)[Neu5Ac(a2-3)]Gal(b1-4)Glc
# Summary of the method: as §1
# [18] = biological target: Neu5Ac(a2-3)Gal(b1-3)GalNAc(b1-4)[Neu5Ac(a2-8)Neu5Ac(a2-3)]Gal(b1-4)Glc
# Summary of the method: as §1
# [19] = biological target: Neu5Ac(a2-3)Gal(b1-3)GalNAc6S
# Summary of the method: as §1
# [20] = biological target: Neu5Ac(a2-3)Gal(b1-3)GlcNAc
# Summary of the method: as §1
# [21] = biological target: Neu5Ac(a2-3)Gal(b1-3)GlcNAc(b1-2)Man
# Summary of the method: as §1
# [22] = biological target: Neu5Ac(a2-3)Gal(b1-3)GlcNAc(b1-2)Man(a1-3)[GlcNAc(b1-4)][Neu5Ac(a2-3)Gal(b1-3)GlcNAc(b1-2)Man(a1-6)]Man(b1-4)GlcNAc(b1-4)GlcNAc
# Summary of the method: as §1
# [23] = biological target: Neu5Ac(a2-3)Gal(b1-3)GlcNAc(b1-2)Man(a1-3)[Neu5Ac(a2-3)Gal(b1-3)GlcNAc(b1-2)Man(a1-6)]Man(b1-4)GlcNAc(b1-4)GlcNAc
# Summary of the method: as §1
# [24] = biological target: Neu5Ac(a2-3)Gal(b1-3)GlcNAc(b1-3)Gal(b1-3)GlcNAc
# Summary of the method: as §1
# [25] = biological target: Neu5Ac(a2-3)Gal(b1-3)GlcNAc(b1-3)Gal(b1-4)GlcNAc
# Summary of the method: as §1
# [26] = biological target: Neu5Ac(a2-3)Gal(b1-3)GlcNAc(b1-3)GalNAc
# Summary of the method: as §1
# [27] = biological target: Neu5Ac(a2-3)Gal(b1-3)GlcNAc(b1-4)Gal(b1-4)Glc
# Summary of the method: as §1
# [28] = biological target: Neu5Ac(a2-3)Gal(b1-3)GlcNAc(b1-6)GalNAc
# Summary of the method: as §1
binder,measurement,setting,value
B1,glycan array binding signal (z-score),Kdn(a2-3)Gal(b1-3)GlcNAc,0.04
same,glycan array binding signal (z-score),Kdn(a2-3)Gal(b1-4)Glc,-0.488
same,glycan array binding signal (z-score),Kdn(a2-3)Gal(b1-4)GlcNAc,0.112
same,glycan array binding signal (z-score),[1],-0.494
same,glycan array binding signal (z-score),Kdn(a2-6)Gal(b1-4)GlcNAc,-0.233
same,glycan array binding signal (z-score),[2],0.082
same,glycan array binding signal (z-score),[3],-0.484
same,glycan array binding signal (z-score),Man(a1-2)Man(a1-3)Man,0.722
same,glycan array binding signal (z-score),[4],-0.446
same,glycan array binding signal (z-score),[5],0.121
same,glycan array binding signal (z-score),[6],0.032
same,glycan array binding signal (z-score),[7],-0.813
same,glycan array binding signal (z-score),[8],-0.109
same,glycan array binding signal (z-score),[9],-0.179
same,glycan array binding signal (z-score),Man(a1-3)[Man(a1-6)]Man,0.033
same,glycan array binding signal (z-score),[10],1.29
same,glycan array binding signal (z-score),[11],0.294
same,glycan array binding signal (z-score),[12],0.16
same,glycan array binding signal (z-score),[13],-0.277
same,glycan array binding signal (z-score),[14],0.051
same,glycan array binding signal (z-score),Man(a1-6)Man,-0.507
same,glycan array binding signal (z-score),Man(b1-4)GlcNAc,-0.86
same,glycan array binding signal (z-score),MurNAc(b1-4)GlcNAc,-0.64
same,glycan array binding signal (z-score),Neu5Ac(a2-3)Gal,0.167
same,glycan array binding signal (z-score),[15],-0.043
same,glycan array binding signal (z-score),[16],-0.134
same,glycan array binding signal (z-score),[17],-0.631
same,glycan array binding signal (z-score),[18],-0.56
same,glycan array binding signal (z-score),[19],-0.22
same,glycan array binding signal (z-score),[20],0.243
same,glycan array binding signal (z-score),[21],-0.04
same,glycan array binding signal (z-score),[22],-0.079
same,glycan array binding signal (z-score),[23],0.192
same,glycan array binding signal (z-score),[24],-0.6
same,glycan array binding signal (z-score),[25],-0.278
same,glycan array binding signal (z-score),[26],-0.722
same,glycan array binding signal (z-score),[27],-0.338
same,glycan array binding signal (z-score),[28],-0.58

# A second format for part of the listing above.
binder | measurement | setting | value
B1 | glycan array binding signal (z-score) | Kdn(a2-3)Gal(b1-3)GlcNAc | 0.04
same | glycan array binding signal (z-score) | [25] | -0.278
